Data as given in PubChem BioAssay AID1159578 (Peter MacCallum Cancer Centre, 2015).
Assay: 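Knock-downs that alter how fast lymphatic endothelial cells migrate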 (primary screen). Cells: human lymphatic endothelial cells. Reagent: siRNA pool against human genes, 40 nM. Time to read-out: 48 h after transfection. Measurement: 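High-content imaging of dye-stained cells in a scratch assay measures filled wound area and nuclei per well; duplicate means given as ratio to mock and robust z-score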. Scale: migration robust z-score: higher = faster migration into the scratch; migration relative to mock: higher = more scratch area covered than mock; nuclei per well: higher = more cells in the well. Active means: 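Migration changed when robust z exceeds 2 or falls below -2 and mean nuclei number is at least 3300; otherwise not called changed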. Meaning of the calls: active = migration changed; inactive = no migration change, or too few cells.
This is an unselected part of about 18,000 reagents. In the full data, about 1,030 (5.7%) are marked active. 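Inactive calls also include pools with fewer than 3300 nuclei, whose migration was not assessed.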 The raw values are shown without normalisation. Unmarked entries are inactive.

gene | migration robust z-score | migration class with cell-count check | migration relative to mock | nuclei per well, duplicate mean
LTF | 0.16 | migration z between -2 and 2; enough cells | 0.84 | 5332
BCL2L1 | -0.94 | migration z between -2 and 2; enough cells | 0.64 | 4577
TBL3 | 0.7 | migration z between -2 and 2; enough cells | 1.07 | 6725
ACSBG1 | 0.25 | migration z between -2 and 2; enough cells | 0.95 | 7040
ZNF215 | 0.11 | migration z between -2 and 2; enough cells | 0.92 | 5978
DPPA3 | 0.84 | migration z between -2 and 2; enough cells | 1.1 | 5502
MED1 | 0.18 | migration z between -2 and 2; enough cells | 0.84 | 6210
WDR89 | -0.21 | migration z between -2 and 2; enough cells | 0.82 | 6210
DVL3 | 0.55 | migration z between -2 and 2; enough cells | 1.02 | 6308
MEGF11 | -2.47 (active) | migration z below -2; enough cells | 0.24 | 4442
OR56A3 | 1.22 | migration z between -2 and 2; enough cells | 1.2 | 7073
FHIP1B | 1.62 | migration z between -2 and 2; enough cells | 1.31 | 6536
IL1R1 | -0.31 | migration z between -2 and 2; enough cells | 0.74 | 5398
RBM17 | 0.1 | migration z between -2 and 2; enough cells | 0.92 | 5920
TPRN | 0.65 | migration z between -2 and 2; enough cells | 1.05 | 5364
SEMA3E | 1.21 | migration z between -2 and 2; enough cells | 1.2 | 5744
CYB5R4 | -1.66 | migration z between -2 and 2; enough cells | 0.48 | 5367
OR51E1 | -0.2 | migration z between -2 and 2; enough cells | 0.84 | 4148
NCAPD2 | -0.55 | migration z between -2 and 2; enough cells | 0.74 | 6257
UBR3 | -0.18 | migration z between -2 and 2; enough cells | 0.77 | 5292
CA2 | 1.4 | migration z between -2 and 2; enough cells | 1.07 | 5580
NOM1 | 1.5 | migration z between -2 and 2; enough cells | 1.27 | 7231
TBC1D22B | 1.66 | migration z between -2 and 2; enough cells | 1.31 | 7204
DISC1 | 3.66 (active) | migration z above 2; enough cells | 1.84 | 5095
CLCC1 | 0.18 | migration z between -2 and 2; enough cells | 0.84 | 5194
HEPN1 | -0.85 | migration z between -2 and 2; enough cells | 0.66 | 5832
RBMY1F | -0.82 | migration z between -2 and 2; enough cells | 0.68 | 5058
ZFP30 | 0.23 | migration z between -2 and 2; enough cells | 0.94 | 6142
PPP2R5C | 0 | migration z between -2 and 2; enough cells | 0.8 | 4932
PEX39 | 2.02 (active) | migration z above 2; enough cells | 1.41 | 5799
HOXB13 | 0.98 | migration z between -2 and 2; enough cells | 1 | 5769
SOX11 | 1.04 | migration z between -2 and 2; enough cells | 1.16 | 6038
SRRT | 0.16 | migration z between -2 and 2; enough cells | 0.92 | 6264
OTP | 0.28 | migration z between -2 and 2; enough cells | 0.97 | 5656
ZNF454 | 1.03 | migration z between -2 and 2; enough cells | 1.16 | 5090
ELAPOR1 | -0.5 | migration z between -2 and 2; enough cells | 0.76 | 5552
RPL22 | -1.24 | migration z between -2 and 2; enough cells | 0.56 | 5356
PEX6 | 1.25 | migration z between -2 and 2; enough cells | 1.04 | 6154
USP24 | 0 | migration z between -2 and 2; enough cells | 0.8 | 5539

7 neighbouring reagents from above, quoted:
gene | migration robust z-score | migration class with cell-count check | migration relative to mock | nuclei per well, duplicate mean
SOX11 | 1.04 | migration z between -2 and 2; enough cells | 1.16 | 6038
SRRT | 0.16 | migration z between -2 and 2; enough cells | 0.92 | 6264
OTP | 0.28 | migration z between -2 and 2; enough cells | 0.97 | 5656
ZNF454 | 1.03 | migration z between -2 and 2; enough cells | 1.16 | 5090
ELAPOR1 | -0.5 | migration z between -2 and 2; enough cells | 0.76 | 5552
RPL22 | -1.24 | migration z between -2 and 2; enough cells | 0.56 | 5356
PEX6 | 1.25 | migration z between -2 and 2; enough cells | 1.04 | 6154
